Data from publication PMC8909100.
These are yes or no findings as the source states them, for the method shown. In cells and extracts the contact can be indirect. Some entries that bind do so weakly or less than the wild type.

The chains behind the UniProt entries cited, without tags or fusion partners.
UniProt P35222: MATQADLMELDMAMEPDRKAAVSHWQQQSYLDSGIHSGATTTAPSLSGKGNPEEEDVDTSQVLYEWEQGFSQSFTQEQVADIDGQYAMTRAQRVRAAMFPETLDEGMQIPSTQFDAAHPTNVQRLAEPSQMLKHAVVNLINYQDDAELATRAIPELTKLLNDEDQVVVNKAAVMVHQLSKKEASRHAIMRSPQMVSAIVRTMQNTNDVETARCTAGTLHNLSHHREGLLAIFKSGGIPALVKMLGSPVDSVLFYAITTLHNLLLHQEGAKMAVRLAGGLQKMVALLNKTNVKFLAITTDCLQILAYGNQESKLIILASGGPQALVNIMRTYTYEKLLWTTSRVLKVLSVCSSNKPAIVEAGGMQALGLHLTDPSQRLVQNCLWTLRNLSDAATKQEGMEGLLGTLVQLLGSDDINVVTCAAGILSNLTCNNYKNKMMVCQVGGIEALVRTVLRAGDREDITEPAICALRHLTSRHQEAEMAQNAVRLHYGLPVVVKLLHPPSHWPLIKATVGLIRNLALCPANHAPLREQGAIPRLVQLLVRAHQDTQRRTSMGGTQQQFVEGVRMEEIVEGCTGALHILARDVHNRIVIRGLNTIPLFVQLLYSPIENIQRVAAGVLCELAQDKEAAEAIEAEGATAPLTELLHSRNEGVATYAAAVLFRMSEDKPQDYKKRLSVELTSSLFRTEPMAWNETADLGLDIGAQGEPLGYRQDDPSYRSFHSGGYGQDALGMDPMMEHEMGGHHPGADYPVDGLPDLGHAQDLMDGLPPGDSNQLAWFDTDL
UniProt O15540: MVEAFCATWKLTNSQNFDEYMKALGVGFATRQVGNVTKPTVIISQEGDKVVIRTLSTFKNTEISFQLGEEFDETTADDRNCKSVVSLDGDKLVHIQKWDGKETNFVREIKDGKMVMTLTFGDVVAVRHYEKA

Molecular target: HA-tagged-β-catenin (UniProt P35222)
Experiment: co-IP; HA-tagged β-catenin precipitated with HA affinity agarose from NP-40 lysate overnight at 4 °C; 5 washes in 150 mM NaCl, 10 mM HEPES pH 7.4, 0.1% NP-40; Western blot; methods name 293FT cells, legends name A549 cells; Figure 5F with or without FABP7 overexpression

Substance | binding
FABP7, ectopically overexpressed (from UniProt O15540 1-132) | binds
fatty acid binding protein 7 (FABP7), endogenous (from UniProt O15540 1-132) | binds
